Source: paper PMC11793977
These are yes or no findings as the source states them, for the method shown. In cells and extracts the contact can be indirect. Some entries that bind do so weakly or less than the wild type.

Chains of the proteins cited; added tags and fusions are not shown.
UniProt P62879: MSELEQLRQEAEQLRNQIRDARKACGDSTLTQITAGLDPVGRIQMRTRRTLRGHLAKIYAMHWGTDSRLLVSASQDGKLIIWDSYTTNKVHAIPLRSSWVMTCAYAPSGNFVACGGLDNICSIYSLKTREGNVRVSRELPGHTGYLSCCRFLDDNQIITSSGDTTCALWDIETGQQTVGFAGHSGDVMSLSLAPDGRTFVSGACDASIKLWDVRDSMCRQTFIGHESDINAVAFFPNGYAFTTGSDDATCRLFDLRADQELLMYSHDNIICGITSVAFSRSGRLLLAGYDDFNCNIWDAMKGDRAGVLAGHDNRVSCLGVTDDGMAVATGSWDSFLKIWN
UniProt O14610: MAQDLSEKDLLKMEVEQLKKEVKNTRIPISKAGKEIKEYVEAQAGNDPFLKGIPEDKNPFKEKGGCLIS

Molecular target: Venus (155–209)-β2 (UniProt P62879)
Experiment: split reporter; Venus complementation in living HeLa cells also expressing OptoGDI and Lyn-CIBN; 515 nm excitation, 542 nm emission

binding: binds
Substance: Venus (1–155)-γ9 (from UniProt O14610 1-69)
